A short description of data set [1]: UV/vis spectroscopic interaction studies of PZ-derived peptides with heme. In kind it is binding. The following applies: heme–peptide complex, difference spectra. The method, then:
Heme binding to PZ‐derived peptides 1 –5 was analyzed by UV/vis spectroscopy, as previously reported for other protein‐derived peptides as well.^[ [18] ^, [19] ^, [35] ^, [43] ^, [44] ^] In brief, each peptide (10 µM) was incubated for 30 min with heme in 100 mM HEPES buffer (pH 7.0) for 30 min. Absorbance spectra were recorded in the range of 300–600 nm on a Infinite 200 Pro spectrophotometer. Difference spectra were generated by subtraction of the single absorbance data of heme and the peptide, respectively, from the data of the heme–peptide complex. Difference spectra were plotted with GraphPad Prism, version 10.5.0. K D values were calculated using the equation from Pîrnău and Bogdan (2008).^[ [45] ^]

In data set [2] the test system is T1, PZ.
T1 construct: purchased CellSystems GmbH HCPZ-0220
Briefly: UV/vis-spectroscopic titration of heme to PZ. In kind it is binding, human.

Regarding “C(Me)SLLHRNITVKTYFNRT (N-terminal S-methylated cysteine) [Peptide 3, PZ-derived peptide around H183/Y191 with methylated cysteine, positions 179 - 195]”, in data set [1], the Soret shift is ~ 417 nm.

On to FWRRYKGGS [Peptide 1], for which the Soret shift in data set [1] is ~ 420 nm.

Hemin [heme]: the “number of heme molecules bound specifically by PZ” value in data set [2] (UV/vis titration, saturation at ratio 1:1) is “one”. For the same substance, the Soret band shift result in data set [2] (heme (90 µM) titrated to PZ (10 µM), ratios 1:1 to 1:4) is given as “≈ 404 nm”.

With “IKITHVHVHMRYD [Peptide 4, PZ-derived peptide around H206/H208/H210, positions 202 - 214]”, the Soret shift in data set [1] is listed as ~ 418 nm.

Regarding “VTREHRGSW [Peptide 5, PZ-derived peptide around H321, positions 317 - 325]”, in data set [1], the Soret shift is listed as ~ 421 nm.

The values are drawn from article PMC12781162, “Human Protein Z as the Second Known Heme‐Binding Protein from the Endogenous Blood Coagulation Inhibitor System” (Chembiochem, 2025).
